Experimental data: PubChem BioAssay AID1259405 (NCATS, 2018)
This is one part, drawn at random, of about 50,000 reagents. Over the whole deposit, about 4,000 (8%) were called active. 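Mouse siRNA library applied to hamster cells; one well for each siRNA.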 The numbers tell different reagents against one gene apart.

Screen: 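Silenced genes that increase secreted GFP made by CHO cells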 (primary screen)
System: Chinese hamster CHO-K1 ovary cells with stable secreted eGFP expression
Knock-down reagent: single siRNA against mouse genes, 0.8 pmol siRNA per well (2 µl of 400 nM stock)
Time to read-out: 3 days
Read-out: 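Percent of the per-plate non-targeting control median for intracellular GFP per well by laser scanning cytometry and for cell viability by ATP luminescence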
Scale: GFP, % of control: higher = more GFP per well, higher productivity; viability (ATP), % of control: higher = more viable cells (more ATP)
Active means: 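Called active when intracellular GFP, relative to negative control, is at or above 120%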

| target gene | reagent no. | GFP, % of control | viability (ATP), % of control | Call |
| --- | --- | --- | --- | --- |
| Septin1 (septin 1) | 1 | 101 | 106 | inactive |
| Septin1 (septin 1) | 2 | 64.1 | 77.4 | inactive |
| Qrich1 (glutamine-rich 1) | 1 | 90.7 | 110 | inactive |
| Qrich1 (glutamine-rich 1) | 2 | 69 | 90.3 | inactive |
| Cyp2c23 (cytochrome P450, family 2, subfamily c, polypeptide 23) | 1 | 39.5 | 48.7 | inactive |
| Cyp2c23 (cytochrome P450, family 2, subfamily c, polypeptide 23) | 2 | 84.5 | 66.6 | inactive |
| Cyp2c23 (cytochrome P450, family 2, subfamily c, polypeptide 23) | 3 | 83 | 92.2 | inactive |
| Cox6a2 (cytochrome c oxidase subunit 6A2) | 1 | 72.1 | 66.3 | inactive |
| Cox6a2 (cytochrome c oxidase subunit 6A2) | 2 | 24.8 | 63.7 | inactive |
| Cox6a2 (cytochrome c oxidase subunit 6A2) | 3 | 95.4 | 46.8 | inactive |
| Ppp1r26 (protein phosphatase 1, regulatory subunit 26) | 1 | 64.6 | 68.8 | inactive |
| Ppp1r26 (protein phosphatase 1, regulatory subunit 26) | 2 | 38.3 | 50.4 | inactive |
| Ppp1r26 (protein phosphatase 1, regulatory subunit 26) | 3 | 101 | 65.2 | inactive |
| Tcta (T cell leukemia translocation altered gene) | 1 | 83 | 103 | inactive |
| Tcta (T cell leukemia translocation altered gene) | 2 | 75.5 | 91.5 | inactive |
| Tcta (T cell leukemia translocation altered gene) | 3 | 193 | 175 | active |
| Tcta (T cell leukemia translocation altered gene) | 4 | 87.4 | 77.2 | inactive |
| Tcta (T cell leukemia translocation altered gene) | 5 | 85.8 | 103 | inactive |
| Tcta (T cell leukemia translocation altered gene) | 6 | 95.6 | 103 | inactive |
| Tmem87a (transmembrane protein 87A) | 1 | 59.2 | 39.4 | inactive |
| Tmem87a (transmembrane protein 87A) | 2 | 76 | 61.3 | inactive |
| Tmem87a (transmembrane protein 87A) | 3 | 77.9 | 80.8 | inactive |
| Glis1 (GLIS family zinc finger 1) | 1 | 144 | 113 | active |
| Glis1 (GLIS family zinc finger 1) | 2 | 0.358 | 169 | inactive |
| Pfdn5 (prefoldin 5) | 1 | 112 | 119 | inactive |
| Pfdn5 (prefoldin 5) | 2 | 127 | 103 | active |
| Fam170a (family with sequence similarity 170, member A) | 1 | 84.5 | 81.4 | inactive |
| Fam170a (family with sequence similarity 170, member A) | 2 | 78.5 | 68.6 | inactive |
| Fam170a (family with sequence similarity 170, member A) | 3 | 65 | 71.6 | inactive |
| Noc3l (NOC3 like DNA replication regulator) | 1 | 102 | 78.9 | inactive |
| Noc3l (NOC3 like DNA replication regulator) | 2 | 92.6 | 55.2 | inactive |
| Noc3l (NOC3 like DNA replication regulator) | 3 | 74.4 | 76 | inactive |
| Ccdc148 (coiled-coil domain containing 148) | 1 | 61.1 | 17.5 | inactive |
| Ccdc148 (coiled-coil domain containing 148) | 2 | 144 | 90.8 | active |
| Ccdc148 (coiled-coil domain containing 148) | 3 | 97.7 | 96 | inactive |
| Cpb2 (carboxypeptidase B2) | 1 | 113 | 109 | inactive |
| Cpb2 (carboxypeptidase B2) | 2 | 94.2 | 53.4 | inactive |
| Cpb2 (carboxypeptidase B2) | 3 | 139 | 78.7 | active |
| Or6z6 (olfactory receptor family 6 subfamily Z member 6) | 1 | 67 | 69.2 | inactive |
| Or6z6 (olfactory receptor family 6 subfamily Z member 6) | 2 | 54.3 | 79.4 | inactive |
| Or6z6 (olfactory receptor family 6 subfamily Z member 6) | 3 | 50.9 | 85.3 | inactive |
| Ercc6l2 | 1 | 74 | 66 | inactive |
| Ercc6l2 | 2 | 105 | 94.1 | inactive |
| Ercc6l2 | 3 | 137 | 164 | active |
| H2-M10.4 (histocompatibility 2, M region locus 10.4) | 1 | 33 | 16.7 | inactive |
| H2-M10.4 (histocompatibility 2, M region locus 10.4) | 2 | 69.3 | 60.1 | inactive |
| H2-M10.4 (histocompatibility 2, M region locus 10.4) | 3 | 121 | 74.6 | active |
| Twist1 (twist basic helix-loop-helix transcription factor 1) | 1 | 84.4 | 136 | inactive |
| Twist1 (twist basic helix-loop-helix transcription factor 1) | 2 | 70.6 | 83.6 | inactive |
| Twist1 (twist basic helix-loop-helix transcription factor 1) | 3 | 76.6 | 93.7 | inactive |
| Syngr1 (synaptogyrin 1) | 1 | 91 | 88.2 | inactive |
| Syngr1 (synaptogyrin 1) | 2 | 118 | 89.4 | inactive |
| Syngr1 (synaptogyrin 1) | 3 | 82.6 | 54.3 | inactive |
| Ube2dnl1 (ubiquitin-conjugating enzyme E2D N-terminal like 1) | 1 | 79.5 | 85 | inactive |
| Ube2dnl1 (ubiquitin-conjugating enzyme E2D N-terminal like 1) | 2 | 94.3 | 97.8 | inactive |
| Ube2dnl1 (ubiquitin-conjugating enzyme E2D N-terminal like 1) | 3 | 72.5 | 77.7 | inactive |
| Atg14 (autophagy related 14) | 1 | 74.8 | 122 | inactive |
| Atg14 (autophagy related 14) | 2 | 96.9 | 96 | inactive |
| Atg14 (autophagy related 14) | 3 | 97.8 | 76.7 | inactive |
| Atp6v1e2 (ATPase, H+ transporting, lysosomal V1 subunit E2) | 1 | 48.9 | 70.3 | inactive |
| Atp6v1e2 (ATPase, H+ transporting, lysosomal V1 subunit E2) | 2 | 65.5 | 62.3 | inactive |
| Atp6v1e2 (ATPase, H+ transporting, lysosomal V1 subunit E2) | 3 | 109 | 34.7 | inactive |
| Or1x2 (olfactory receptor family 1 subfamily X member 2) | 1 | 54.1 | 50 | inactive |
| Or1x2 (olfactory receptor family 1 subfamily X member 2) | 2 | 89 | 82.4 | inactive |
| Or1x2 (olfactory receptor family 1 subfamily X member 2) | 3 | 105 | 130 | inactive |
| Ablim3 (actin binding LIM protein family, member 3) | 1 | 85.1 | 83.4 | inactive |
| Ablim3 (actin binding LIM protein family, member 3) | 2 | 82.2 | 82.5 | inactive |
| Abhd10 (abhydrolase domain containing 10) | 1 | 105 | 91.3 | inactive |
| Abhd10 (abhydrolase domain containing 10) | 2 | 115 | 89.2 | inactive |
| Abhd10 (abhydrolase domain containing 10) | 3 | 116 | 111 | inactive |
| Itpkc (inositol 1,4,5-trisphosphate 3-kinase C) | 1 | 79.5 | 71.1 | inactive |
| Brf2 | 1 | 60.6 | 72.2 | inactive |
| Brf2 | 2 | 96.2 | 83.7 | inactive |
| Zfp846 (zinc finger protein 846) | 1 | 43.9 | 65.9 | inactive |
| Zfp846 (zinc finger protein 846) | 2 | 82.3 | 82.8 | inactive |
| Zfp846 (zinc finger protein 846) | 3 | 62.7 | 84.7 | inactive |
| Gngt2 | 1 | 150 | 70.3 | active |
| Gngt2 | 2 | 90.5 | 52.2 | inactive |
| Gngt2 | 3 | 84.8 | 95.4 | inactive |
| Chsy3 (chondroitin sulfate synthase 3) | 1 | 110 | 101 | inactive |
| Chsy3 (chondroitin sulfate synthase 3) | 2 | 88.9 | 90.8 | inactive |
| Chsy3 (chondroitin sulfate synthase 3) | 3 | 51.8 | 52.3 | inactive |
| Mrpl10 (mitochondrial ribosomal protein L10) | 1 | 76.7 | 62.4 | inactive |
| Mrpl10 (mitochondrial ribosomal protein L10) | 2 | 103 | 76.8 | inactive |
| Mrpl10 (mitochondrial ribosomal protein L10) | 3 | 65.6 | 54.2 | inactive |

An excerpt of the results above:
| target gene | reagent no. | GFP, % of control | viability (ATP), % of control | Call |
| --- | --- | --- | --- | --- |
| Or1x2 (olfactory receptor family 1 subfamily X member 2) | 2 | 89 | 82.4 | inactive |
| Or1x2 (olfactory receptor family 1 subfamily X member 2) | 3 | 105 | 130 | inactive |
| Ablim3 (actin binding LIM protein family, member 3) | 1 | 85.1 | 83.4 | inactive |
| Ablim3 (actin binding LIM protein family, member 3) | 2 | 82.2 | 82.5 | inactive |
| Abhd10 (abhydrolase domain containing 10) | 1 | 105 | 91.3 | inactive |
| Abhd10 (abhydrolase domain containing 10) | 2 | 115 | 89.2 | inactive |
| Abhd10 (abhydrolase domain containing 10) | 3 | 116 | 111 | inactive |
| Itpkc (inositol 1,4,5-trisphosphate 3-kinase C) | 1 | 79.5 | 71.1 | inactive |
| Brf2 | 1 | 60.6 | 72.2 | inactive |
